Results taken from the supplement of paper PMC5836539.
± gives the standard deviation of the averaged measurements. This data set is noisy: repeats of one test often differ as much as different tests do.

Chains of the proteins cited; added tags and fusions are not shown. Lines headed by an entry give the natural chain unless they say otherwise; changes in a name come on top.
UniProt Q9UQC2, whole entry, looked up: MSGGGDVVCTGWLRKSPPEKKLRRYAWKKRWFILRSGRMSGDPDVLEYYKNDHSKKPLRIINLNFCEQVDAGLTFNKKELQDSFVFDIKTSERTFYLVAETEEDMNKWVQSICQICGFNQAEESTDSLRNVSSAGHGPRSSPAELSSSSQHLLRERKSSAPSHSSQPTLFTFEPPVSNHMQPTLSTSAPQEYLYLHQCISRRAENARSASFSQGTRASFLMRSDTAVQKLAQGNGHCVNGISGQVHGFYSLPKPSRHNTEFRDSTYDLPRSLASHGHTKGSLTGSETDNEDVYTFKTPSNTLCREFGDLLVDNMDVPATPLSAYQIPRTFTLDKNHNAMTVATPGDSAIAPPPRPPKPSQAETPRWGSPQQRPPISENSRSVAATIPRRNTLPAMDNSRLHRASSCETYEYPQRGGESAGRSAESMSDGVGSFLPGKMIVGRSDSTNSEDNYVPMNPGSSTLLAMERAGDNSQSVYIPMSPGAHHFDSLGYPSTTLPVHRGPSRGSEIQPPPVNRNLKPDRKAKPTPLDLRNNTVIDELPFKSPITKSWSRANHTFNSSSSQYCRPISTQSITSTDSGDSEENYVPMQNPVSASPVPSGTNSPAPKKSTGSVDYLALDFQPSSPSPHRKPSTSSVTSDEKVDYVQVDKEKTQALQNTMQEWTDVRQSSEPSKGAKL
UniProt Q9Y2U5: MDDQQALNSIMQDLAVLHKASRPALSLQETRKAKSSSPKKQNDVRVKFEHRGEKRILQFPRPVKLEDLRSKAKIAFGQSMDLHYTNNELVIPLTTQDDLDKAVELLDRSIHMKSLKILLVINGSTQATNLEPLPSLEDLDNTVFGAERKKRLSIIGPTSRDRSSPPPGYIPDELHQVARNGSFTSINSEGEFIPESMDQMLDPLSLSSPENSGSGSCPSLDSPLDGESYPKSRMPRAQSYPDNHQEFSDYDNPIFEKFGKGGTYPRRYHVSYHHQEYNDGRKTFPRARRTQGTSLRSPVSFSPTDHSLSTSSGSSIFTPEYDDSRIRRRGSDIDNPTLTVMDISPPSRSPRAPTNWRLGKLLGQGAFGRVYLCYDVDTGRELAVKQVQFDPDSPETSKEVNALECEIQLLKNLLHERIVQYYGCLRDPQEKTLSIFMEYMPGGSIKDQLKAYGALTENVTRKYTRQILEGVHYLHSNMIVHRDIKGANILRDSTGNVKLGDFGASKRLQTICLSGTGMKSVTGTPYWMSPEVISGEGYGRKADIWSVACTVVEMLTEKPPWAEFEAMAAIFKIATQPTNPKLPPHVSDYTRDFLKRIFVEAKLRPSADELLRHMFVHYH
UniProt Q9Y5T5, whole entry, looked up: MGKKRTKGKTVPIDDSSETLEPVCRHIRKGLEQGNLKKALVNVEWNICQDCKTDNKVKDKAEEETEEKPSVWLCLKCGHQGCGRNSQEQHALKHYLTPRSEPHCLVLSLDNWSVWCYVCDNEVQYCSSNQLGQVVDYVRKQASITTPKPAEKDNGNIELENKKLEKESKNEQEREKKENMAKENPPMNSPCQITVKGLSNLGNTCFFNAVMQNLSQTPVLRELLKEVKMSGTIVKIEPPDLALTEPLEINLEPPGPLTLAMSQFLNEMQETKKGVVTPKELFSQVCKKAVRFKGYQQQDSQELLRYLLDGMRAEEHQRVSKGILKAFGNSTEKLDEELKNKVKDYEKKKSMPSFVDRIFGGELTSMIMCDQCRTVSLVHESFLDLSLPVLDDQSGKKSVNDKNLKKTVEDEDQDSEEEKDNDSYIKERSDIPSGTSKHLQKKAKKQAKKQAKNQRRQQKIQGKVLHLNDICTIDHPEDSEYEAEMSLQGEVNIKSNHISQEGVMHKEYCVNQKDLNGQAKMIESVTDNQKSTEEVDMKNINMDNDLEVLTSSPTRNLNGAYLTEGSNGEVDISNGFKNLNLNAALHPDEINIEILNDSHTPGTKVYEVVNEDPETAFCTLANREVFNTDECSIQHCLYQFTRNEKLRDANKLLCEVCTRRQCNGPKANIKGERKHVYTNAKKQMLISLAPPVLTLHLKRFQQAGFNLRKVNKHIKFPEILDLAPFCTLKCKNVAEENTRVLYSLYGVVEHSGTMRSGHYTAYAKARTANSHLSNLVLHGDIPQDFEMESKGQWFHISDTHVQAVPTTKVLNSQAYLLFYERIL
UniProt Q9Y6Q9, whole entry, looked up: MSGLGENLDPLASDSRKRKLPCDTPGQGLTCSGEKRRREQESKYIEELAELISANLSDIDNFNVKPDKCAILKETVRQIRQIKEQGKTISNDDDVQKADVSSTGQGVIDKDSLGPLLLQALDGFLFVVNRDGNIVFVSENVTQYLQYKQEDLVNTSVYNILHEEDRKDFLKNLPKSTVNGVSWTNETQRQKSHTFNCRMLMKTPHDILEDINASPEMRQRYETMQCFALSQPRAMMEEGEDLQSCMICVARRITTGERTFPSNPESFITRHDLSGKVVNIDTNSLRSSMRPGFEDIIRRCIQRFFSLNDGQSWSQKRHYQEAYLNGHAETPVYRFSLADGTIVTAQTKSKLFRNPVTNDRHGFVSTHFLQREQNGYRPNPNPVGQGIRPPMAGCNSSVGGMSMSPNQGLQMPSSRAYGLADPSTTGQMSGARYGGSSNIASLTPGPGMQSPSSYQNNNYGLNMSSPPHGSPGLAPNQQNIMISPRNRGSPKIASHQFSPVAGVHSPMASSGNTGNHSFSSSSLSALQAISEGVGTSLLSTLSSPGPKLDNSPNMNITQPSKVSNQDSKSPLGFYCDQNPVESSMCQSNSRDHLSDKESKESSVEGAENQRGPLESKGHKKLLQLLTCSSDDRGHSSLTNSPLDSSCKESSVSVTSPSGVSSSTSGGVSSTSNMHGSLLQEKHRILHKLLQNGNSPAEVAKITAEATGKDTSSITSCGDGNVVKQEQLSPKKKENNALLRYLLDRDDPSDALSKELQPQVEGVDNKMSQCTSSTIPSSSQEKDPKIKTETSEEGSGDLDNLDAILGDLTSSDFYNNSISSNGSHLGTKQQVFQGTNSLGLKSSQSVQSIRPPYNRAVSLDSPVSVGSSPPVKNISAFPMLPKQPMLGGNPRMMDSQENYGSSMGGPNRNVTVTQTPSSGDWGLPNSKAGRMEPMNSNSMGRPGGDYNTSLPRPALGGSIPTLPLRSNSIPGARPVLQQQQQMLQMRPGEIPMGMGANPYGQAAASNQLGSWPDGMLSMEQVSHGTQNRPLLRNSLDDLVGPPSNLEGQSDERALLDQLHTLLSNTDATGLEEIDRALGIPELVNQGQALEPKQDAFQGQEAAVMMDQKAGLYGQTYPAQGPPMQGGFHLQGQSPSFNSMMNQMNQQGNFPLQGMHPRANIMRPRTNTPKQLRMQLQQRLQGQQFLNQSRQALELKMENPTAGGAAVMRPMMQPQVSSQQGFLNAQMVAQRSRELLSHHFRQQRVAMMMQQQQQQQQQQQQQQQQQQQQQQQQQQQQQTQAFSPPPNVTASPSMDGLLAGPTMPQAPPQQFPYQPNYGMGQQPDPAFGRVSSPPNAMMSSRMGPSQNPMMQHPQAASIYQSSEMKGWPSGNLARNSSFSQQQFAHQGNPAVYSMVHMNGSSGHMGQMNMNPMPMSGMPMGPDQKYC
UniProt Q53HC9: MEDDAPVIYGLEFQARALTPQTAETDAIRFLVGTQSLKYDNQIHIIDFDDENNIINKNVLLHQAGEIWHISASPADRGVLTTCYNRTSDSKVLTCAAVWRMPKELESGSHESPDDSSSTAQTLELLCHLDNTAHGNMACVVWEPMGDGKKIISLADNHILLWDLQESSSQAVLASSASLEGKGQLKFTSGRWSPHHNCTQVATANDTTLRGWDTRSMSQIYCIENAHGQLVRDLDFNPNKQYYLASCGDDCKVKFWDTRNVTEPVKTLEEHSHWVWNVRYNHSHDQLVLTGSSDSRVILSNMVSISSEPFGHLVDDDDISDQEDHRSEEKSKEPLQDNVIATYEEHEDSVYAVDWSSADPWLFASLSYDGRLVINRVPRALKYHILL
UniProt Q68E01, whole entry, looked up: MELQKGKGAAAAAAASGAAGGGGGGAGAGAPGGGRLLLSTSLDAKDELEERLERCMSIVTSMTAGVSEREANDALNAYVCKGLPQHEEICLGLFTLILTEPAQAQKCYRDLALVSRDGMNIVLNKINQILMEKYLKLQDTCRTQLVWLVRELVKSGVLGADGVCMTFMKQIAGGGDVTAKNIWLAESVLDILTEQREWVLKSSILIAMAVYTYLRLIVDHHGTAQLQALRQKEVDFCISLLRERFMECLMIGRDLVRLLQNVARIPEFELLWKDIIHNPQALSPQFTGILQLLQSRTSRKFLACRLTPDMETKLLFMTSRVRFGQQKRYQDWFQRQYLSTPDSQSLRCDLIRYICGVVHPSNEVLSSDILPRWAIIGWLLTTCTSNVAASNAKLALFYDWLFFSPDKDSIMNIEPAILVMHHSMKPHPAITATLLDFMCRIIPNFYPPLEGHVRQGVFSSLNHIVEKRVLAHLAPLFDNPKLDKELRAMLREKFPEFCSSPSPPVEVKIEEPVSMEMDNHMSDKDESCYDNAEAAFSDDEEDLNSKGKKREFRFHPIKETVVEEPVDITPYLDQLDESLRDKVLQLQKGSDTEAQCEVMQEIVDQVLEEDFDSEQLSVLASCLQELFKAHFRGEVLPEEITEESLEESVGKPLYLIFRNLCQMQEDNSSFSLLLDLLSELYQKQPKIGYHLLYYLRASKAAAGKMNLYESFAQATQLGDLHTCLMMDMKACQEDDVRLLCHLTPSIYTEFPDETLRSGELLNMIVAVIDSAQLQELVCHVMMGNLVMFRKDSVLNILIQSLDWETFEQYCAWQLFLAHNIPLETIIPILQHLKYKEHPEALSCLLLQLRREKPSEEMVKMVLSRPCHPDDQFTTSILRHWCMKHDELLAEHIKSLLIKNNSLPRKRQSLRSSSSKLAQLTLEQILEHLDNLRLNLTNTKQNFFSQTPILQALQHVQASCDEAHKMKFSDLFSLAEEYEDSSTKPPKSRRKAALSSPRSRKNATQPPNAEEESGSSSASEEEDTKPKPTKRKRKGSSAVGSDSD
UniProt Q71RC2, whole entry, looked up: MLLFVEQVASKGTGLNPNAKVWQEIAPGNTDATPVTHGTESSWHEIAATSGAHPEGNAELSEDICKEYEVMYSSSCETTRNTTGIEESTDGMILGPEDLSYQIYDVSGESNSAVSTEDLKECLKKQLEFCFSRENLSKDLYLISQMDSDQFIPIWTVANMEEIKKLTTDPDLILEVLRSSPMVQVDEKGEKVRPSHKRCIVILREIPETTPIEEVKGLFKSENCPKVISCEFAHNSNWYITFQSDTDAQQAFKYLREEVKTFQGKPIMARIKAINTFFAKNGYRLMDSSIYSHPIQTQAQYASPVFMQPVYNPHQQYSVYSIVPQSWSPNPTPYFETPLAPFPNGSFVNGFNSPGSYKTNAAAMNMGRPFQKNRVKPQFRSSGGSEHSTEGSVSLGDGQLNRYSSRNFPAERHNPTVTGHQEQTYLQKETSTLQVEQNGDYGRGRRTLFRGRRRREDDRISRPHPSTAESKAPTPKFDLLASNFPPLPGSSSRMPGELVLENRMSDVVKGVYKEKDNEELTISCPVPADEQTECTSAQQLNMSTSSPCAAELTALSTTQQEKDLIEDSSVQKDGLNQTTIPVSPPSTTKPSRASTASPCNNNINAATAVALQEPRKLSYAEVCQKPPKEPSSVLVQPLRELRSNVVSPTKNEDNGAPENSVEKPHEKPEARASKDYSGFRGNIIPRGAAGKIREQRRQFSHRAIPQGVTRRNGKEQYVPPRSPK
UniProt Q86VR2, whole entry, looked up: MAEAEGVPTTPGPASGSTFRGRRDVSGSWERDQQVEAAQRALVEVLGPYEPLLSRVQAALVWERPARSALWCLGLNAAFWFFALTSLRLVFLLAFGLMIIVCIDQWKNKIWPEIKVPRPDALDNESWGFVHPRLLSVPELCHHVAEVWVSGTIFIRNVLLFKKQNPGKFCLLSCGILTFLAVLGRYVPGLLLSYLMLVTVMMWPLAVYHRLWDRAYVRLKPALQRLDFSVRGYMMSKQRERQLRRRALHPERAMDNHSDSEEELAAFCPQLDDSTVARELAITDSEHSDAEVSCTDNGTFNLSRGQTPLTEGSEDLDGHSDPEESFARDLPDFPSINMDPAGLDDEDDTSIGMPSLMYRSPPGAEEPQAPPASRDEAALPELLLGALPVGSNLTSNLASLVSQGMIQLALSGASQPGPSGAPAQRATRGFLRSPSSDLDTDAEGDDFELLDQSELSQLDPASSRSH

compound: CC[C@@H](C)Nc1cc(C(=O)N[C@H]2C[C@H]3CC[C@@H](C2)N3c2ccc(C(=O)C3CC3)cn2)c(C)cc1C(N)=O [XL888]; assay: phosphopeptide melting temperature shift (XL888 minus DMSO); higher = stabilised by drug treatment; conditions: 100 µM; treatment time 2 h; layout: intact cells; SK-Mel 28
Experimental: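 Phospho-TPP in intact SK-Mel 28 cells treated with 100 uM XL888 or DMSO for 2 h, heated at 10 temperatures (37-67 C) for 3 min, soluble fraction TMT10plex-labelled and TiO2 phospho-enriched. Melting curves were fitted per phosphopeptide; the value is the melting point difference (drug minus vehicle) in each of two biological replicates.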

How did the “phosphopeptide melting temperature shift” value turn out when “UniProt Q9UPN9-2_phosphosite_1088 (phosphosite position: 1088)” was run?
Its value is -1.03 ± 1.2 °C.

With “UniProt Q9UPP1-5_phosphosite_804 (phosphosite position: 804)” as the target, how does the “phosphopeptide melting temperature shift” value read?
Its value is 2.41 °C.

“UniProt Q9UPQ0-9_phosphosite_552 (phosphosite position: 552)” was tested. Which “phosphopeptide melting temperature shift” value did it give?
The value was -1.38 °C.

With “UniProt Q9UPQ9-1_phosphosite_567 (phosphosite position: 567)” as the target, how does the “phosphopeptide melting temperature shift” value read?
The value was -0.153 °C.

Which “phosphopeptide melting temperature shift” value does the source give for “UniProt Q9UPQ9-1_phosphosite_1322 (phosphosite position: 1322)” here?
The value was 1.83 °C.

How did the “phosphopeptide melting temperature shift” value turn out when “UniProt Q9UPT5-4_phosphosite_250 (phosphosite position: 250)” was run?
The value was 2.76 °C.

How did the “phosphopeptide melting temperature shift” value turn out when “UniProt Q9UPZ3-2_phosphosite_347 (phosphosite position: 347)” was run?
Its value is -7.23 °C.

For “UniProt Q9UQC2-2_phosphosite_367 (phosphosite position: 367)”, which “phosphopeptide melting temperature shift” value is on record?
The value was -0.637 ± 0.73 °C.

Which “phosphopeptide melting temperature shift” value does the source give for “UniProt Q9Y2D5-5_phosphosite_210 (phosphosite position: 210)” here?
Its value is -0.535 °C.

With “UniProt Q9Y2D5-5_phosphosite_809 (phosphosite position: 809)” as the target, how does the “phosphopeptide melting temperature shift” value read?
Its value is 2.36 ± 0.043 °C.

“UniProt Q9Y2H0-3_phosphosite_434 (phosphosite position: 434)” was tested. Which “phosphopeptide melting temperature shift” value did it give?
The value was -1.94 ± 0.93 °C.

“UniProt Q9Y2I7_phosphosite_22 (phosphosite position: 22)” was tested. Which “phosphopeptide melting temperature shift” value did it give?
The value was -1.46 ± 2.1 °C.

“UniProt Q9Y2I7_phosphosite_307 (phosphosite position: 307)” was tested. Which “phosphopeptide melting temperature shift” value did it give?
Its value is 0.877 ± 0.26 °C.

Which “phosphopeptide melting temperature shift” value does the source give for “UniProt Q9Y2J0-2_phosphosite_688 (phosphosite position: 688)” here?
Its value is 2.34 ± 3.5 °C.

With “UniProt Q9Y2J0-2_phosphosite_689 (phosphosite position: 689)” as the target, how does the “phosphopeptide melting temperature shift” value read?
The value was 5.2 ± 0.78 °C.

With “UniProt Q9Y2K7-3_phosphosite_713 (phosphosite position: 713)” as the target, how does the “phosphopeptide melting temperature shift” value read?
Its value is 2.38 °C.

With “UniProt Q9Y2L9-2_phosphosite_370 (phosphosite position: 370)” as the target, how does the “phosphopeptide melting temperature shift” value read?
The value was 0.39 °C.

For “UniProt Q9Y2U5_phosphosite_331 (phosphosite position: 331)”, which “phosphopeptide melting temperature shift” value is on record?
The value was 0.74 ± 0.89 °C.

With “UniProt Q9Y3M2_phosphosite_20 (phosphosite position: 20)” as the target, how does the “phosphopeptide melting temperature shift” value read?
The value was 1.27 °C.

With “UniProt Q9Y3M8-5_phosphosite_125 (phosphosite position: 125)” as the target, how does the “phosphopeptide melting temperature shift” value read?
The value was 0.569 ± 0.55 °C.

“UniProt Q9Y4F5-3_phosphosite_527 (phosphosite position: 527)” was tested. Which “phosphopeptide melting temperature shift” value did it give?
Its value is -0.88 ± 1.4 °C.

With “UniProt Q9Y4F5-3_phosphosite_549 (phosphosite position: 549)” as the target, how does the “phosphopeptide melting temperature shift” value read?
The value was -0.338 ± 1.2 °C.

How did the “phosphopeptide melting temperature shift” value turn out when “UniProt Q9Y4F5-3_phosphosite_1065 (phosphosite position: 1065)” was run?
The value was 1.72 °C.

“UniProt Q9Y4F5-3_phosphosite_1234 (phosphosite position: 1234)” was tested. Which “phosphopeptide melting temperature shift” value did it give?
The value was 1.93 ± 0.99 °C.

With “UniProt Q9Y4F5-3_phosphosite_1475 (phosphosite position: 1475)” as the target, how does the “phosphopeptide melting temperature shift” value read?
The value was 0.674 °C.

“UniProt Q9Y4F5-3_phosphosite_1478 (phosphosite position: 1478)” was tested. Which “phosphopeptide melting temperature shift” value did it give?
Its value is -0.367 ± 0.27 °C.

For “UniProt Q9Y5B6-2_phosphosite_262 (phosphosite position: 262)”, which “phosphopeptide melting temperature shift” value is on record?
The value was 2.7 ± 0.84 °C.

“UniProt Q9Y5B6-2_phosphosite_557 (phosphosite position: 557)” was tested. Which “phosphopeptide melting temperature shift” value did it give?
The value was 0.82 °C.

For “UniProt Q9Y5B6-2_phosphosite_558 (phosphosite position: 558)”, which “phosphopeptide melting temperature shift” value is on record?
The value was 0.82 °C.

For “UniProt Q9Y5Q9-2_phosphosite_43 (phosphosite position: 43)”, which “phosphopeptide melting temperature shift” value is on record?
Its value is 5.06 °C.

“UniProt Q9Y5S2_phosphosite_1690 (phosphosite position: 1690)” was tested. Which “phosphopeptide melting temperature shift” value did it give?
Its value is 1.26 ± 2.3 °C.

For “UniProt Q9Y5S9_phosphosite_56 (phosphosite position: 56)”, which “phosphopeptide melting temperature shift” value is on record?
Its value is 11.4 °C.

With “UniProt Q9Y5T5-4_phosphosite_105 (phosphosite position: 105)” as the target, how does the “phosphopeptide melting temperature shift” value read?
Its value is 0.568 ± 1.1 °C.

How did the “phosphopeptide melting temperature shift” value turn out when “UniProt Q9Y6Q9-4_phosphosite_214 (phosphosite position: 214)” was run?
Its value is -2.39 °C.

For “UniProt Q9Y520-6_phosphosite_924 (phosphosite position: 924)”, which “phosphopeptide melting temperature shift” value is on record?
Its value is 1.52 ± 0.018 °C.

Which “phosphopeptide melting temperature shift” value does the source give for “UniProt Q9Y520-6_phosphosite_926 (phosphosite position: 926)” here?
The value was 0.194 ± 1.3 °C.

Which “phosphopeptide melting temperature shift” value does the source give for “UniProt Q9Y520-6_phosphosite_2013 (phosphosite position: 2013)” here?
Its value is 1.03 °C.

For “UniProt Q9Y520-6_phosphosite_2105 (phosphosite position: 2105)”, which “phosphopeptide melting temperature shift” value is on record?
Its value is -0.157 ± 0.0046 °C.

How did the “phosphopeptide melting temperature shift” value turn out when “UniProt Q9Y618-5_phosphosite_149 (phosphosite position: 149)” was run?
Its value is 2.59 ± 2.1 °C.

“UniProt Q9Y618-5_phosphosite_152 (phosphosite position: 152)” was tested. Which “phosphopeptide melting temperature shift” value did it give?
The value was 2.59 ± 2.1 °C.

For “UniProt Q14C86-3_phosphosite_746 (phosphosite position: 746)”, which “phosphopeptide melting temperature shift” value is on record?
The value was 1.84 °C.

How did the “phosphopeptide melting temperature shift” value turn out when “UniProt Q27J81-2_phosphosite_1188 (phosphosite position: 1188)” was run?
The value was 1.62 °C.

“UniProt Q32MZ4-3_phosphosite_88 (phosphosite position: 88)” was tested. Which “phosphopeptide melting temperature shift” value did it give?
The value was 0.818 ± 0.96 °C.

Which “phosphopeptide melting temperature shift” value does the source give for “UniProt Q32MZ4-3_phosphosite_712 (phosphosite position: 712)” here?
The value was 5.64 °C.

How did the “phosphopeptide melting temperature shift” value turn out when “UniProt Q53EL6-2_phosphosite_82 (phosphosite position: 82)” was run?
Its value is 2.22 °C.

Which “phosphopeptide melting temperature shift” value does the source give for “UniProt Q53EL6-2_phosphosite_446 (phosphosite position: 446)” here?
Its value is 0.182 ± 0.37 °C.

How did the “phosphopeptide melting temperature shift” value turn out when “UniProt Q53HC9_phosphosite_320 (phosphosite position: 320)” was run?
The value was 1.55 ± 1.2 °C.

Which “phosphopeptide melting temperature shift” value does the source give for “UniProt Q58WW2-4_phosphosite_700 (phosphosite position: 700)” here?
The value was 3.22 °C.

For “UniProt Q58WW2-4_phosphosite_703 (phosphosite position: 703)”, which “phosphopeptide melting temperature shift” value is on record?
The value was 3.22 °C.

For “UniProt Q63ZY3-3_phosphosite_375 (phosphosite position: 375)”, which “phosphopeptide melting temperature shift” value is on record?
The value was 1.46 °C.

Which “phosphopeptide melting temperature shift” value does the source give for “UniProt Q66K74-2_phosphosite_446 (phosphosite position: 446)” here?
Its value is -0.000445 ± 0.033 °C.

How did the “phosphopeptide melting temperature shift” value turn out when “UniProt Q66K74-2_phosphosite_612 (phosphosite position: 612)” was run?
The value was 1.62 ± 1.5 °C.

Which “phosphopeptide melting temperature shift” value does the source give for “UniProt Q66K74-2_phosphosite_614 (phosphosite position: 614)” here?
Its value is 1.45 ± 1.3 °C.

For “UniProt Q66K74-2_phosphosite_705 (phosphosite position: 705)”, which “phosphopeptide melting temperature shift” value is on record?
The value was -0.102 ± 0.85 °C.

“UniProt Q66K74-2_phosphosite_715 (phosphosite position: 715)” was tested. Which “phosphopeptide melting temperature shift” value did it give?
The value was -0.762 ± 0.88 °C.

How did the “phosphopeptide melting temperature shift” value turn out when “UniProt Q66K74-2_phosphosite_733 (phosphosite position: 733)” was run?
The value was -0.29 ± 0.51 °C.

“UniProt Q68DA7_phosphosite_620 (phosphosite position: 620)” was tested. Which “phosphopeptide melting temperature shift” value did it give?
Its value is 0.39 ± 0.2 °C.

How did the “phosphopeptide melting temperature shift” value turn out when “UniProt Q68DA7_phosphosite_842 (phosphosite position: 842)” was run?
Its value is 3.3 °C.

With “UniProt Q68E01-4_phosphosite_14 (phosphosite position: 14)” as the target, how does the “phosphopeptide melting temperature shift” value read?
The value was 4.39 ± 1.8 °C.

Which “phosphopeptide melting temperature shift” value does the source give for “UniProt Q69YQ0-2_phosphosite_220 (phosphosite position: 220)” here?
The value was 1.72 ± 0.47 °C.

How did the “phosphopeptide melting temperature shift” value turn out when “UniProt Q71RC2-5_phosphosite_526 (phosphosite position: 526)” was run?
Its value is 0.39 °C.

For “UniProt Q71RC2-5_phosphosite_651 (phosphosite position: 651)”, which “phosphopeptide melting temperature shift” value is on record?
Its value is -2.46 °C.

With “UniProt Q76FK4-2_phosphosite_297 (phosphosite position: 297)” as the target, how does the “phosphopeptide melting temperature shift” value read?
The value was -0.474 °C.

Which “phosphopeptide melting temperature shift” value does the source give for “UniProt Q86UE8-2_phosphosite_117 (phosphosite position: 117)” here?
Its value is 2.57 °C.

For “UniProt Q86UU0-3_phosphosite_116 (phosphosite position: 116)”, which “phosphopeptide melting temperature shift” value is on record?
Its value is 8.31 °C.

“UniProt Q86UU1-3_phosphosite_324 (phosphosite position: 324)” was tested. Which “phosphopeptide melting temperature shift” value did it give?
Its value is -0.9 ± 0.076 °C.

With “UniProt Q86UU1-3_phosphosite_518 (phosphosite position: 518)” as the target, how does the “phosphopeptide melting temperature shift” value read?
Its value is -0.242 °C.

How did the “phosphopeptide melting temperature shift” value turn out when “UniProt Q86UU1-3_phosphosite_520 (phosphosite position: 520)” was run?
The value was -0.494 °C.

“UniProt Q86UU1-3_phosphosite_583 (phosphosite position: 583)” was tested. Which “phosphopeptide melting temperature shift” value did it give?
Its value is -0.328 ± 0.17 °C.

Which “phosphopeptide melting temperature shift” value does the source give for “UniProt Q86UV5-2_phosphosite_886 (phosphosite position: 886)” here?
The value was 2.23 °C.

Which “phosphopeptide melting temperature shift” value does the source give for “UniProt Q86V48-2_phosphosite_574 (phosphosite position: 574)” here?
Its value is 2.33 °C.

Which “phosphopeptide melting temperature shift” value does the source give for “UniProt Q86VP1-2_phosphosite_624 (phosphosite position: 624)” here?
The value was 0.384 °C.

“UniProt Q86VR2-2_phosphosite_63 (phosphosite position: 63)” was tested. Which “phosphopeptide melting temperature shift” value did it give?
Its value is 2.14 ± 1.5 °C.

For “UniProt Q86VR2-2_phosphosite_65 (phosphosite position: 65)”, which “phosphopeptide melting temperature shift” value is on record?
Its value is 2.14 ± 1.5 °C.

Which “phosphopeptide melting temperature shift” value does the source give for “UniProt Q86W92-2_phosphosite_449 (phosphosite position: 449)” here?
Its value is 0.904 °C.

With “UniProt Q86W92-2_phosphosite_595 (phosphosite position: 595)” as the target, how does the “phosphopeptide melting temperature shift” value read?
Its value is 0.616 ± 1.3 °C.
